Among the data in patent EP4477673A1, “IMMUNOCONJUGATE AND USE THEREOF” (priority 2022, dated 2023) are binding values, retold here.

The chains behind the UniProt entries cited, without tags or fusion partners. Where a name states a change or a piece, a line headed by the entry shows the natural chain unless it says otherwise.
UniProt Q15116: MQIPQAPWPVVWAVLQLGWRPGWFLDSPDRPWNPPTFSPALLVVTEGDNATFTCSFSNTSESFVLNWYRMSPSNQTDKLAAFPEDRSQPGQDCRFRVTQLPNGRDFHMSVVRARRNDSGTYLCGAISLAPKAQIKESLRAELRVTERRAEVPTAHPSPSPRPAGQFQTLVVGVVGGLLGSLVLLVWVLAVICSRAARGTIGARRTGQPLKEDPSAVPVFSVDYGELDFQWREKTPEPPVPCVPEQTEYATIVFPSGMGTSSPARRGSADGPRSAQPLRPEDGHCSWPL

Changes are numbered by the printed parent chain. Names may count otherwise. No constants are given. Whether binding was seen depends on the method and setting. Some binding calls cover weakened binding; strength is not graded here.

Test [1] deals with T1, human IL-2Rβ/γ receptor heterodimer protein (Acrosystem, ILG-H5283) (human) (UniProt P14784+P31785).
T1 sequence (looked up) 1: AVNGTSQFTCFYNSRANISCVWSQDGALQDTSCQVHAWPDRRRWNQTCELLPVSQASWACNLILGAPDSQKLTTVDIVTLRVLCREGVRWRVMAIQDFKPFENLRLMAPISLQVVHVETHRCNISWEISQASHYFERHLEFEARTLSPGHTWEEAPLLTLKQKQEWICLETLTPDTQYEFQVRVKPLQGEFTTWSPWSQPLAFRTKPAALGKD
T1 sequence (looked up) 2: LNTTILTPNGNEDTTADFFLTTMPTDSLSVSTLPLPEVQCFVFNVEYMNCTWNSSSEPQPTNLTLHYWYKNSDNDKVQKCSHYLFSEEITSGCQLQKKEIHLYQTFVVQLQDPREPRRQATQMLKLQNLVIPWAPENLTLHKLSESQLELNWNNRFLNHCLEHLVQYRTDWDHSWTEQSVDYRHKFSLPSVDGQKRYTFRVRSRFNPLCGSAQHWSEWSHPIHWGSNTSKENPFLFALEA
The experiment in a line: SPR Biacore 8K. On the technique in general: Surface plasmon resonance follows binding to a sensor surface in real time, without labels.

Test [2] addresses Human PD-1 antigen protein (Sino Biological, 10377-H08H) (human) (UniProt Q15116). The experiment in a line: SPR Biacore 8K.

B1: A-PC (Fc fusion)
chain (part 1 of 2): EVQLVESGGGLVQPGGSLRLSCAASGLTFSDYSMSWYRQAPGKGRELVAIISGSGVITHYVDSVKGRFTISRDNAKNTLYLQMRSLRAEDTAVYYCRAVSDWEDYWGQGTQVTVSS
chain (part 2 of 2): GGGGSGGGGSGGGGSAPASSSTKKTQLQLEHLLLDLQMILQGISNYKNPKLTRMLTAKFYMPKKATELKHLQCLEEELKPLEEVLQGAQSKNFHLRPRDLISNINVIVLELKGSETTFMCEYADETATIVEFLNRWITFAQSIISTLT
chain: B1 chain (part 1 of 2)
notes: also called positive control molecule A-PC; PD-1-IL-2v; not shown: IgG1 hinge (C220S) + Fc Knob chain (L234A, L235A, S354C, T366W, EU); D356/L358 or E356/M358 ver; IgG1 hinge (C220S) + Fc Hole chain (L234A, L235A, Y349C, T366S, L368A, Y407V; may have H435R, Y436F; EU)
As to B1, the binding result in test [1] and in test [2] was “binds” each time.

B2: A-D20A (Fc fusion)
chain (part 1 of 2): B1 chain (part 1 of 2)
chain (part 2 of 2): B1 chain (part 2 of 2) with D35A
chain: B1 chain (part 1 of 2)
notes: also called PD-1-IL-2v (D20A); not shown: IgG1 hinge (C220S) + Fc Knob chain (L234A, L235A, S354C, T366W, EU); D356/L358 or E356/M358 ver; IgG1 hinge (C220S) + Fc Hole chain (L234A, L235A, Y349C, T366S, L368A, Y407V; may have H435R, Y436F; EU)
Turning to B2, the binding entry in test [2] is “binds”.
